Laboratory results taken from PubChem BioAssay AID330 (DTP/NCI, 2004).
The list shows only some results of the screen, not a fair sample: it is rich in T/C values a quarter to a half above the control, in often repeated tests (any T/C) and in doses without a T/C. Further doses and runs are listed elsewhere. T/C is the treated group as % of the vehicle group. Some entries give survivors of the animals treated and no T/C: the source files T/C as zero there, which appears to mark a toxic dose or a test without result, not a measured value. Some doses without a T/C left all or most animals alive at the check, yet need not have been tolerated: the source hardly ever lists a survival T/C far under the control, and the zero likely stands for such cases as well. Survivors were counted at the toxicity check, usually on the fifth day, unless a day is given; later deaths do not show. Schedule codes are those of the source, read here as Q, the interval in days (D) or hours (H), X, the number of doses. Where survival is the endpoint, this PubChem deposit counts one and a half times the control or more as active, and values a quarter to a half above the control carry no call in these data; other NCI protocols may use other cut-offs.

System: P388 leukemia ip, CD2F1 mice, survival T/C
Assay: NCI In Vivo Anticancer Drug Screen. Data for tumor model P388 Leukemia (intraperitoneal) in CD2F1 (CDF1) mice
Settings: T/C endpoint: median survival time, higher T/C = longer survival
[1] = dose: 100.0 mg/kg/injection, schedule: Q01DX005 (ip), vehicle: saline with Tween-80
[2] = dose: 200.0 mg/kg/injection, schedule: Q01DX005 (ip), vehicle: saline with Tween-80
[3] = dose: 200.0 mg/kg/injection, schedule: Q01DX005 (ip), vehicle: Klucel (hydroxypropylcellulose) (HPC)
[4] = dose: 200.0 mg/kg/injection, schedule: Q01DX005 (ip), vehicle: saline
[5] = dose: 200.0 mg/kg/injection, schedule: Q01DX009 (ip), vehicle: Klucel (hydroxypropylcellulose) (HPC)
[6] = dose: 50.0 mg/kg/injection, schedule: Q01DX009 (ip), vehicle: suspension in saline
[7] = dose: 200.0 mg/kg/injection, schedule: Q01DX009 (ip), vehicle: suspension in saline

With `CN1CCc2cc3c(cc2[C@H]1[C@@H]1OC(=O)c2c1ccc1c2OCO1)OCO3` the survivor count (dose: 25.0 mg/kg/injection, schedule: Q01DX005 (ip), vehicle: saline with Tween-80) was 0 of 6, the survivor count (dose: 50.0 mg/kg/injection, schedule: Q01DX005 (ip), vehicle: saline with Tween-80) was 1 of 5 and the survivor count [1] was 0 of 5. The survivor count [2] was 0 of 5.
`Cc1c(CNc2ccc(C(=O)NC(CC(=O)O)C(=O)O)cc2)ccc2nc(N)nc(N)c12` (configuration not stated) was tested, and the survivor count (dose: 37.5 mg/kg/injection, schedule: Q04DX003 (ip), vehicle: saline with Tween-80) was 6 of 6 and the survivor count (dose: 50.0 mg/kg/injection, schedule: Q04DX003 (ip), vehicle: saline with Tween-80) was 6 of 6.
For `NC(N)=NC(N)=Nc1c(F)c(F)c(F)c(F)c1F`, the T/C (dose: 12.5 mg/kg/injection, schedule: Q01DX009 (ip), vehicle: saline with Tween-80) was 125 % of control, the survivor count (dose: 100.0 mg/kg/injection, schedule: Q01DX009 (ip), vehicle: saline with Tween-80) was 0 of 6 and the survivor count (dose: 200.0 mg/kg/injection, schedule: Q01DX009 (ip), vehicle: saline with Tween-80) was 0 of 6.
In the case of `Nc1cccc2c1C(=O)c1cccc3snc-2c13`, the survivor count [3] is reported as 3 of 6.
In the case of `COc1cc2c[n+]3ccc4ccccc4c3c(N)c2cc1OC`, the survivor count (dose: 200.0 mg/kg/injection, schedule: Q04DX003 (ip), vehicle: distilled water + Tween-80) is reported as 4 of 6 and the survivor count (dose: 400.0 mg/kg/injection, schedule: Q04DX003 (ip), vehicle: distilled water + Tween-80) is reported as 0 of 6.
For `O=C(COc1ccc(Cl)cc1)OC(=O)COc1ccc(Cl)cc1`, the survivor count (dose: 400.0 mg/kg/injection, schedule: Q01DX009 (ip), vehicle: other) was 5 of 6.
In the case of `CC(C)N[P+](c1ccccc1)(c1ccccc1)c1ccccc1`, the survivor count (dose: 50.0 mg/kg/injection, schedule: Q04DX003 (ip), vehicle: saline) is reported as 1 of 6 and the survivor count (dose: 100.0 mg/kg/injection, schedule: Q04DX003 (ip), vehicle: saline) is reported as 0 of 6.
With `COC1=CC(=[N+]2CCCCC2)CC(C)(C)C1` the survivor count (dose: 100.0 mg/kg/injection, schedule: Q01DX005 (ip), vehicle: saline) was 0 of 6 and the survivor count [4] was 0 of 6.
`CCn1c(=O)c2[nH]c(Cl)nc2n(CC(C)Cl)c1=O` (configuration not stated) was tested, and the survivor count [5] was 0 of 6.
`CC1C(c2ccccc2)NC(c2ccccc2)C(C)C1(O)c1ccccc1` (configuration not stated) was tested, and the survivor count [2] was 0 of 6.
For `NC(=S)c1cccc(OCCCOc2ccccc2)c1`, the survivor count [3] was 3 of 5.
For `c1ccc(-c2nn(-c3ccccc3)[n+](-c3ccccc3)n2)cc1`, the survivor count (dose: 5.0 mg/kg/injection, schedule: Q01DX009 (ip), vehicle: saline with Tween-80) was 4 of 6.
In the case of `CSc1nc(NC2OC(COC(C)=O)C(OC(C)=O)C(OC(C)=O)C2OC(C)=O)c(N=CC=Nc2c(NC3OC(COC(C)=O)C(OC(C)=O)C(OC(C)=O)C3OC(C)=O)nc(SC)n(C)c2=O)c(=O)n1C` (configuration not stated), the survivor count (dose: 240.0 mg/kg/injection, schedule: Q01DX005 (ip), vehicle: saline with Tween-80) is reported as 6 of 6.
For `CCCNC(=S)N/N=C(/C)CC/C(C)=N/NC(=S)NCCC`, the survivor count (dose: 100.0 mg/kg/injection, schedule: Q01DX009 (ip), vehicle: saline) was 6 of 6 and the survivor count (dose: 200.0 mg/kg/injection, schedule: Q01DX009 (ip), vehicle: saline) was 6 of 6.
`C=CCn1/c(=N\NC(=O)c2ccncc2)sc2ccccc21` was tested, and the survivor count (dose: 50.0 mg/kg/injection, schedule: Q01DX009 (ip), vehicle: Klucel (hydroxypropylcellulose) (HPC)) was 6 of 6, the survivor count (dose: 100.0 mg/kg/injection, schedule: Q01DX009 (ip), vehicle: Klucel (hydroxypropylcellulose) (HPC)) was 6 of 6 and the survivor count [5] was 6 of 6.
`O=C(O)c1cccc(C(=O)O)c1O` was tested, and the survivor count (dose: 400.0 mg/kg/injection, schedule: Q01DX001 (ip), vehicle: saline with Tween-80) was 0 of 6.
In the case of `C[C@@]12CCC[C@@H]1OC(=O)C2`, the survivor count [1] is reported as 0 of 6 and the survivor count [2] is reported as 0 of 6.
`COCCN[C@@H]1C[C@@](C)(O)Cc2cc3c(c(O)c21)C(=O)c1c(O)cc2c(c1C3=O)O[C@H]1O[C@]2(C)[C@@H](O)[C@H](N(C)C)[C@H]1O` was tested, and the T/C (dose: 15.0 mg/kg/injection, schedule: Q01DX009 (ip), vehicle: other) was 133 % of control, the T/C (dose: 20.0 mg/kg/injection, schedule: Q01DX009 (ip), vehicle: other) was 138 % of control and the T/C (dose: 30.0 mg/kg/injection, schedule: Q01DX009 (ip), vehicle: other) was 140 % of control. The T/C (dose: 40.0 mg/kg/injection, schedule: Q01DX009 (ip), vehicle: other) was 140 % of control and the survivor count (dose: 120.0 mg/kg/injection, schedule: Q01DX009 (ip), vehicle: other) was 5 of 6.
For `COc1ccc(OC)c2c1C(=O)C=CC2=O`, the survivor count (dose: 12.5 mg/kg/injection, schedule: Q01DX001 (ip), vehicle: saline) was 3 of 5, the survivor count (dose: 25.0 mg/kg/injection, schedule: Q01DX001 (ip), vehicle: saline) was 1 of 5 and the survivor count (dose: 50.0 mg/kg/injection, schedule: Q01DX001 (ip), vehicle: saline) was 0 of 5. The survivor count (dose: 100.0 mg/kg/injection, schedule: Q01DX001 (ip), vehicle: saline) was 0 of 6, the survivor count (dose: 200.0 mg/kg/injection, schedule: Q01DX001 (ip), vehicle: saline) was 0 of 6 and the survivor count (dose: 400.0 mg/kg/injection, schedule: Q01DX001 (ip), vehicle: saline) was 0 of 6.
In the case of `O=[N+]([O-])c1ccc(/C=C(/c2ccc([N+](=O)[O-])o2)S(=O)(=O)C(Cl)(Cl)Cl)cc1`, the survivor count [6] is reported as 4 of 6 and the survivor count [7] is reported as 6 of 6.
In the case of `O=[N+]([O-])c1ccc(/C=C/[P+](c2ccccc2)(c2ccccc2)c2ccccc2)o1`, the survivor count (dose: 6.25 mg/kg/injection, schedule: Q01DX009 (ip), vehicle: saline) is reported as 3 of 6, the survivor count (dose: 12.5 mg/kg/injection, schedule: Q01DX009 (ip), vehicle: saline) is reported as 5 of 6 and the survivor count (dose: 25.0 mg/kg/injection, schedule: Q01DX009 (ip), vehicle: saline) is reported as 0 of 6. The survivor count [6] was 1 of 6, the survivor count (dose: 100.0 mg/kg/injection, schedule: Q01DX009 (ip), vehicle: suspension in saline) was 0 of 6 and the survivor count [7] was 0 of 6.
For `CC(=O)OCC1OC(OC2C(COC(C)=O)OC(Sc3ccccc3)C(OC(C)=O)C2OC(C)=O)C(OC(C)=O)C(OC(C)=O)C1OC(C)=O` (configuration not stated), the survivor count (dose: 400.0 mg/kg/injection, schedule: Q04DX002 (ip), vehicle: Klucel (hydroxypropylcellulose) (HPC)) was 6 of 6.
With `CNC(=O)OCc1c(COC(=O)NC)c2n(c1C)CCc1ccccc1-2` the T/C (dose: 3.12 mg/kg/injection, schedule: Q01DX009 (ip), vehicle: distilled water + Tween-80) was 138 % of control, the T/C (dose: 6.25 mg/kg/injection, schedule: Q01DX009 (ip), vehicle: distilled water + Tween-80) was 138 % of control and the T/C (dose: 12.5 mg/kg/injection, schedule: Q01DX009 (ip), vehicle: distilled water + Tween-80) was 140 % of control. For the same compound, the survivor count (dose: 50.0 mg/kg/injection, schedule: Q01DX009 (ip), vehicle: distilled water + Tween-80) was 6 of 6, the survivor count (dose: 100.0 mg/kg/injection, schedule: Q01DX009 (ip), vehicle: distilled water + Tween-80) was 1 of 6 and the survivor count (dose: 200.0 mg/kg/injection, schedule: Q01DX009 (ip), vehicle: distilled water + Tween-80) was 0 of 6.
`C1CCC2OCCOCCOCCOCCOC2C1` (configuration not stated) was tested, and the survivor count [4] was 0 of 5.
